No constants are given. Whether binding was seen depends on the method and setting. Binding can be weak; no strength is given.
Columns and labels:
[1] = molecular target: T1, Cdc37 phosphorylated on serine 13 (human) (UniProt Q16543); assay: pull-down; 50 μg His-tagged Cdc37 immobilised on Talon resin; kinase added in 25 mM Tris.Cl, 150 mM NaCl, 1 mM TCEP, 0.1% Triton-X-100, pH 8.0, 4 °C, 1 h; Coomassie; both purified
T1 sequence (chain, phosphoserine at 13): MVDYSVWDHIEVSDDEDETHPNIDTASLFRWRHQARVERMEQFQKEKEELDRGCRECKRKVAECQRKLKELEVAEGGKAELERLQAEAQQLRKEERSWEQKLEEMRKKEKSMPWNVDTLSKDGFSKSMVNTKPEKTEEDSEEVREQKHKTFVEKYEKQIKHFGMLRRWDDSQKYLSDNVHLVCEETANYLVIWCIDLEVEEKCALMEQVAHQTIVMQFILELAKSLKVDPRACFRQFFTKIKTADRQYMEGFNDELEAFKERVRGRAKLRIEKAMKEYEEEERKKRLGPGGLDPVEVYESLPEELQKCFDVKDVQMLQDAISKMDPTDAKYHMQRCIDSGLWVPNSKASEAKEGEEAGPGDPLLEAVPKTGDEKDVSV

Chains of the proteins cited; added tags and fusions are not shown. Lines headed by an entry give the natural chain unless they say otherwise; changes in a name come on top.
UniProt P15056: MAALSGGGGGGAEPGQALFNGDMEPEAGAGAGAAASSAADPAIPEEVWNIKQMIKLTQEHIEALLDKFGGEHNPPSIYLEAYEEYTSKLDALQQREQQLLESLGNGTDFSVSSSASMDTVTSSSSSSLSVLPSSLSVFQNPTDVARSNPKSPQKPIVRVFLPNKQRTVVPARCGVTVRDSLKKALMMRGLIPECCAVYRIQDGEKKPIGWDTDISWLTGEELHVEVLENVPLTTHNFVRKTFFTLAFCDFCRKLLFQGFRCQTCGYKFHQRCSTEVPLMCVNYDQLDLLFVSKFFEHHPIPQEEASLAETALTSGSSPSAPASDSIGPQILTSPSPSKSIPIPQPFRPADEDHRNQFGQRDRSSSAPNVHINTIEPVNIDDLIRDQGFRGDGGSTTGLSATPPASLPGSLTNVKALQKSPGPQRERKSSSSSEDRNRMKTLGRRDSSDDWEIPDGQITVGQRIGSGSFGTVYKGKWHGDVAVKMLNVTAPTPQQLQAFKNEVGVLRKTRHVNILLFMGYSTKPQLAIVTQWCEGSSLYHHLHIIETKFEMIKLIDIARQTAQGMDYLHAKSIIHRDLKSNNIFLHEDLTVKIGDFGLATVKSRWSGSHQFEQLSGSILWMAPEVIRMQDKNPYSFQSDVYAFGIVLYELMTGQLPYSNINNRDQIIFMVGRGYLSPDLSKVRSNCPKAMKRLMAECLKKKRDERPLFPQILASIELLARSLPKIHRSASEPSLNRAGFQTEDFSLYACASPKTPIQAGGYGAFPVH

[2] = molecular target: T1, Cdc37 phosphorylated on serine 13 (human); assay: SEC; ternary mixture: 15 μM kinase, 15 μM Cdc37, 30 μM Hsp90α (1:1:2), 15 min at 4 °C; Superdex 200 Increase, 25 mM Tris.Cl, 150 mM NaCl, 1 mM TCEP, pH 8.0, 4 °C; fractions by SDS-PAGE and ELISA; both purified
[3] = molecular target: T1, Cdc37 phosphorylated on serine 13 (human); assay: HDX-MS; protein of interest 5 μM alone or with 7.5 μM partner, 30 min on ice, 25 mM Tris.Cl pH 8.0, 150 mM NaCl, 1 mM TCEP; exchange 0.3 s to 300 s; both purified

Measured: binding

sB-Raf^V600E kinase domain (from UniProt P15056) (domain or fragment)
binds: [1] | [2] | [3]

— PMC5846801
